Results reported in publication PMC11246429 (2024).
Results are given in words; binding and its absence hold for the method and conditions named. A result given as binding can be weak or reduced; the word gives no strength. Each block holds one molecule with its values, some of them ahead of it.

Legend:
[1] = molecular target: T1, AP2 β2-appendage domain with linker (residues 617–951) (bovine) (UniProt Q08DS7); experiment: NMR titration; competition: 100 μM 15N AP180 399–598 with 10% AP2β2, then unlabeled AP180 470–500 added (450%); HSQC intensities and 15N R1ρ; both purified
T1 sequence: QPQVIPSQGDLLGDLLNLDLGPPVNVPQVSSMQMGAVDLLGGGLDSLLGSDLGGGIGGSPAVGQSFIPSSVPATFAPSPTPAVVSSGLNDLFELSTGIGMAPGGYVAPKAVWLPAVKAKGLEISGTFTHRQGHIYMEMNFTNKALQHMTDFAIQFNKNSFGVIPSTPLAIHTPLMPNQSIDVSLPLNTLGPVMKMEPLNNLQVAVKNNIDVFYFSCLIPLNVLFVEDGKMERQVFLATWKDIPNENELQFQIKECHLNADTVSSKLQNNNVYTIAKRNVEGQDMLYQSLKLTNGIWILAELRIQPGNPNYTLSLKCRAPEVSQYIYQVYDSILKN

[2] = molecular target: T2, AP2 β2-appendage domain without linker (residues 714–951) (bovine) (UniProt Q08DS7); experiment: cross-linking; AP180 430–500 and AP2β2 714–951 equimolar (100 μM each) in 50 mM Na-phosphate, 1 mM DSS 15 min at room temperature; Glu-C digest, LC-MS/MS; one sample; both purified
T2 sequence: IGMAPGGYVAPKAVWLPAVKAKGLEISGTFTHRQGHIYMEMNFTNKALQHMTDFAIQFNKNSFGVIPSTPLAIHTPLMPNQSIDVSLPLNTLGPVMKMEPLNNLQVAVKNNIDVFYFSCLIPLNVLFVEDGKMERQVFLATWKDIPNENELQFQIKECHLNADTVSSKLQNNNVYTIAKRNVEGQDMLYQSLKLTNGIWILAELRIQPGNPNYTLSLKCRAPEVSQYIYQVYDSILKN

[3] = molecular target: T2, AP2 β2-appendage domain without linker (residues 714–951) (bovine); experiment: NMR titration; 15N, 2H labeled AP2β2 714–951 (200 μM) with 5%, 10%, 20% AP180 430–500; 1H-15N TROSY CSPs, intensity ratios, CPMG; NMR buffer; both purified
AP180 281-500 (rat) = experiment: NMR titration; 15N R1rho relaxation rates of 100 μM 15N AP180 segments with increasing concentrations of unlabeled AP2β2 (0%, 5%, 15%, 50%); 600 MHz; NMR buffer pH 6, 25 °C; both purified
[4] = molecular target: AP180 IDR (residues 281–898 of AP180) (rat); experiment: NMR titration; unlabeled AP2β2 (wild type or mutant) added to 100 μM 15N labeled AP180 (IDR or segments); HSQC intensity ratios, CSPs and 15N R1ρ; NMR buffer 50 mM Na-phosphate pH 6, 150 mM NaCl, 2 mM DTT, 25 °C; both purified
[5] = molecular target: AP180 segment 399–598 (rat); experiment: as above
[6] = molecular target: AP180 segment 540–740 (rat); experiment: as above
[7] = molecular target: AP180 segment 399–598 (rat); experiment: NMR titration; competition: 100 μM 15N AP180 399–598 with 10% AP2β2, then unlabeled AP180 470–500 added (450%); HSQC intensities and 15N R1ρ; both purified

- binding [1]: binds
Molecule: AP180 470–500 (rat) (domain or fragment)

- binding [2]: binds
- binding [3]: binds
Molecule: AP180 430–500 (extended interaction motif, EIM) (rat) (domain or fragment)

- binding (AP180 281-500 (rat)): binds
B1: AP2 beta2-appendage domain with linker, AP2β2 617-951 (domain or fragment, UniProt Q08DS7 617-951)
chain: QPQVIPSQGDLLGDLLNLDLGPPVNVPQVSSMQMGAVDLLGGGLDSLLGSDLGGGIGGSPAVGQSFIPSSVPATFAPSPTPAVVSSGLNDLFELSTGIGMAPGGYVAPKAVWLPAVKAKGLEISGTFTHRQGHIYMEMNFTNKALQHMTDFAIQFNKNSFGVIPSTPLAIHTPLMPNQSIDVSLPLNTLGPVMKMEPLNNLQVAVKNNIDVFYFSCLIPLNVLFVEDGKMERQVFLATWKDIPNENELQFQIKECHLNADTVSSKLQNNNVYTIAKRNVEGQDMLYQSLKLTNGIWILAELRIQPGNPNYTLSLKCRAPEVSQYIYQVYDSILKN

- binding [4]: binds
- binding [5]: binds
- binding [6]: binds weakly
- binding [7]: binds
B2: AP2 β2-appendage domain with linker (residues 617–951) (domain or fragment, UniProt Q08DS7 617-951)
chain: QPQVIPSQGDLLGDLLNLDLGPPVNVPQVSSMQMGAVDLLGGGLDSLLGSDLGGGIGGSPAVGQSFIPSSVPATFAPSPTPAVVSSGLNDLFELSTGIGMAPGGYVAPKAVWLPAVKAKGLEISGTFTHRQGHIYMEMNFTNKALQHMTDFAIQFNKNSFGVIPSTPLAIHTPLMPNQSIDVSLPLNTLGPVMKMEPLNNLQVAVKNNIDVFYFSCLIPLNVLFVEDGKMERQVFLATWKDIPNENELQFQIKECHLNADTVSSKLQNNNVYTIAKRNVEGQDMLYQSLKLTNGIWILAELRIQPGNPNYTLSLKCRAPEVSQYIYQVYDSILKN
